From patent publication US7094429B2, “Process for preparing tannate liquid and semi-solid dosage forms” (Kiel Laboratories, Inc., priority 2001, dated 2006)
Some results were stated once for a whole list of compounds, not compound by compound.

Assay: Conversion process: active dissolved in supernatant of centrifuged MAS/tannic acid conversion samples
Conditions: in-situ tannate conversion in MAS/tannic acid dispersion

**Q.** Which “amount of active ingredient present in solution at the ten, twenty and thirty minute mixing times” value does the source give for `CN(C)CCC(c1ccc(Cl)cc1)c1ccccn1` (stereo not shown) [Chlorpheniramine] here?
**A.** < 0.2%
